PubChem BioAssay AID1224830 – NIAID – 2016

Screen: 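Host factors that control LPS-induced TNF expression in human macrophages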 (primary screen)
Cell system: human THP-1 monocytic leukaemia cells, TNF dual-luciferase reporter clone, PMA-differentiated to macrophage-like cells
Reagents: siRNA pool against human genes, 50 nM
Timing: LPS for 4 h, given about 3 days after siRNA transfection
Treatment: bacterial LPS (TLR4 ligand), 10 ng/ml
Measurement: 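Ratio of firefly to renilla light, scaled to the plate median and expressed as a robust z-score per replicate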
Reading the numbers: TNF reporter robust z-score: higher = stronger TNF reporter response to LPS
Call rule: 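a well is active when its z-score exceeds 2.8 or falls below -1.5; control wells carry no call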
The deposit covers about 18,000 reagents; shown is a part drawn at random. About 2,900 of all reagents (16%) were called active. 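Calls are made per well; low scores hint the gene aids the LPS response, high scores that it dampens it.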 Repeated entries: four replicate wells of each siRNA pool.

For SLC44A3 (GeneID 126969), the entry reads TNF reporter robust z-score 0.4; inactive. SLC44A3 (GeneID 126969) showed TNF reporter robust z-score 0.92; inactive. After knock-down of SLC44A3 (GeneID 126969), the screen gave TNF reporter robust z-score 0.23; inactive. Against SLC44A3 (GeneID 126969), the entry reads TNF reporter robust z-score 0.29; inactive. E2F8 (GeneID 79733) scored TNF reporter robust z-score 1.36; inactive. After knock-down of E2F8 (GeneID 79733), the record shows TNF reporter robust z-score 2.82; active.

For E2F8 (GeneID 79733) the deposit lists TNF reporter robust z-score 3.97; active. For E2F8 (GeneID 79733), the values are TNF reporter robust z-score 3.07; active. Knock-down of GOLM2 (GeneID 113201) gave: TNF reporter robust z-score -0.91; inactive. Knock-down of GOLM2 (GeneID 113201) gave: TNF reporter robust z-score -0.76; inactive. Against GOLM2 (GeneID 113201) the deposit lists TNF reporter robust z-score -0.5; inactive. After knock-down of GOLM2 (GeneID 113201), the record shows TNF reporter robust z-score -0.45; inactive.

Knock-down of TRPC7 (GeneID 57113) came out at: TNF reporter robust z-score -0.68; inactive. After knock-down of TRPC7 (GeneID 57113), the screen gave TNF reporter robust z-score -0.79; inactive. TRPC7 (GeneID 57113) scored TNF reporter robust z-score -1.31; inactive. Knock-down of TRPC7 (GeneID 57113) came out at: TNF reporter robust z-score -0.65; inactive. PHYKPL (GeneID 85007) showed TNF reporter robust z-score -0.65; inactive. Against PHYKPL (GeneID 85007), the values are TNF reporter robust z-score 0.13; inactive.

After knock-down of PHYKPL (GeneID 85007) the results were TNF reporter robust z-score -0.22; inactive. After knock-down of PHYKPL (GeneID 85007) the results were TNF reporter robust z-score 0.8; inactive. After knock-down of PKD1L1 (GeneID 168507), the screen gave TNF reporter robust z-score -0.34; inactive. With knock-down of PKD1L1 (GeneID 168507), the record shows TNF reporter robust z-score -0.87; inactive. PKD1L1 (GeneID 168507) scored TNF reporter robust z-score -0.56; inactive. With knock-down of MT1F (GeneID 4494), the record shows TNF reporter robust z-score -0.63; inactive.

Knock-down of MT1F (GeneID 4494) came out at: TNF reporter robust z-score -0.64; inactive. For MT1F (GeneID 4494), the values are TNF reporter robust z-score -0.53; inactive. After knock-down of MT1F (GeneID 4494), the record shows TNF reporter robust z-score -0.15; inactive.

3 entries from above, sorted by “TNF reporter robust z-score”, ascending.
TRPC7 (GeneID 57113): TNF reporter robust z-score = -1.31; Outcome = inactive
TRPC7 (GeneID 57113): TNF reporter robust z-score = -0.65; Outcome = inactive
PHYKPL (GeneID 85007): TNF reporter robust z-score = -0.65; Outcome = inactive

Continued.
Depletion of ABHD11 (GeneID 83451) came out at: TNF reporter robust z-score -1.11; inactive. After knock-down of ABHD11 (GeneID 83451), the record shows TNF reporter robust z-score -0.88; inactive. Depletion of ABHD11 (GeneID 83451) came out at: TNF reporter robust z-score -0.92; inactive. With knock-down of ABHD11 (GeneID 83451), the screen gave TNF reporter robust z-score 0.03; inactive. With knock-down of ADNP2 (GeneID 22850) the results were TNF reporter robust z-score 0.37; inactive. ADNP2 (GeneID 22850) gave TNF reporter robust z-score 0.13; inactive.

ADNP2 (GeneID 22850) scored TNF reporter robust z-score -0.36; inactive. ADNP2 (GeneID 22850) scored TNF reporter robust z-score -0.34; inactive. Against HMGN5 (GeneID 79366) the deposit lists TNF reporter robust z-score -1.53; active. HMGN5 (GeneID 79366) showed TNF reporter robust z-score -1.54; active. HMGN5 (GeneID 79366) gave TNF reporter robust z-score -1.77; active. After knock-down of HMGN5 (GeneID 79366) the results were TNF reporter robust z-score -1.42; inactive.

Against IFT43 (GeneID 112752), the values are TNF reporter robust z-score 1.01; inactive. IFT43 (GeneID 112752) scored TNF reporter robust z-score 2.79; inactive. IFT43 (GeneID 112752) scored TNF reporter robust z-score 1.14; inactive. IFT43 (GeneID 112752) gave TNF reporter robust z-score 1.44; inactive. Knock-down of NUDT2 (GeneID 318) gave: TNF reporter robust z-score -0.55; inactive. NUDT2 (GeneID 318) gave TNF reporter robust z-score 0.52; inactive.

With knock-down of NUDT2 (GeneID 318), the screen gave TNF reporter robust z-score -0.09; inactive. Knock-down of NUDT2 (GeneID 318) gave: TNF reporter robust z-score -0.51; inactive.
